This is a selection; strong and weak results do not stand in their true shares. At the low end of the ranking, values are background and their order means little.

Sequences of proteins named here, by UniProt entry; tags and fusion partners are left off. A change or cut given only in a name is not applied to a line headed by its entry.
UniProt O43186: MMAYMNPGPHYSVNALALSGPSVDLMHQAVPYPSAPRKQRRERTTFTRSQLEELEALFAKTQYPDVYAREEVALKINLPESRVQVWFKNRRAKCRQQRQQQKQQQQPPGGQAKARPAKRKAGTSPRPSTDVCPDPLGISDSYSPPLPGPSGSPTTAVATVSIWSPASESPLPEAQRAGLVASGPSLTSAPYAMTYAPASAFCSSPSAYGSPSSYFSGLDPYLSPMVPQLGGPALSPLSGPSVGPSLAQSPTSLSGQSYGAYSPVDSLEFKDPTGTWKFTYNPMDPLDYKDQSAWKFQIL

The target of the first assay is T1, FEV (UniProt Q99581).
T1 sequence: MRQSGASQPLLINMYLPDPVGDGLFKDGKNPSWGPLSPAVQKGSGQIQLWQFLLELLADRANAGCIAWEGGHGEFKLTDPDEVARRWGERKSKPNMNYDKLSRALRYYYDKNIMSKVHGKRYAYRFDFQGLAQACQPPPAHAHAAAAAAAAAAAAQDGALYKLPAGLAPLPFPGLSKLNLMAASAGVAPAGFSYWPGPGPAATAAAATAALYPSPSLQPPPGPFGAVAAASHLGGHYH
As to the kind of experiment: DAPPL (digital affinity profiling via proximity ligation, sequencing). The settings on record: 10 mM Tris-HCl pH 7.5, 50 mM NaCl, 1 mM DTT, 4% glycerol, room temperature, 30 min; GST-TFs on glutathione beads, 16-mer random dsDNA library, 0.1% …; high values mean tight binding; double strand, one strand shown; scale: fold enrichment (6-mer frequency, TF over GST control).
The sequence GGTCTG had a binding signal of 0.983.

In turn, TGGTCA yielded a binding signal of 0.948.

Sequence AACAGA displayed a binding signal of 0.913.

Turning to TACATA, the binding signal came out at 1.21.

In the case of CGGCTG, the binding signal was determined as 0.959.

TAGAGA returned a binding signal of 0.79.

On to TGCGGT, for which the binding signal turned out to be 0.992.

In the case of GCGAAG, the binding signal was 0.843.

CATTGG came in with a binding signal of 0.945.

Sequence ACAAAG came in with a binding signal of 0.954.

GCCACC returned a binding signal of 1.01.

Consider CGTCCT, for which the binding signal came out at 1.38.

CGTCCA showed a binding signal of 0.968.

Take TGTAGA: the binding signal turned out to be 0.863.

Take CTCGGG: the binding signal came out at 0.909.

Turning to CGCGTA, the binding signal amounted to 0.96.

Take ACTGGA: the binding signal was determined as 1.

Regarding CATTCA, the binding signal was found to be 1.01.

The sequence GAATAG registered a binding signal of 0.913.

GCGGCA gave a binding signal of 0.874.

Sequence TAACGT displayed a binding signal of 0.909.

In turn, TTTGTT registered a binding signal of 1.19.

Sequence AGCGGC came in with a binding signal of 0.949.

GCAAAG: the binding signal was 0.938.

Sequence CAGATC had a binding signal of 0.902.

Consider GTTCAG, for which the binding signal came out at 0.908.

GGTTGT registered a binding signal of 0.879.

Sequence ACGCGT had a binding signal of 0.955.

For the sequence GTTGGC, the binding signal worked out at 0.934.

CTGTGG yielded a binding signal of 0.793.

In turn, CGTCAT came in with a binding signal of 0.905.

As to TCCAGT, the binding signal is 0.626.

In turn, GGAATG gave a binding signal of 0.84.

The sequence TAGCGA registered a binding signal of 0.995.

In turn, CAGAAC came in with a binding signal of 0.888.

Turning to CAGAAG, the binding signal amounted to 0.722.

Regarding GCCTGG, the binding signal came to 0.884.

On to GCATTT, for which the binding signal stood at 1.57.

In the case of CACTAG, the binding signal came to 0.972.

The next assay concerns the target CRX (UniProt O43186). The description is as above. The settings on record: 10 mM Tris-HCl pH 7.5, 50 mM NaCl, 1 mM DTT, 4% glycerol, room temperature, 30 min; GST-TFs on glutathione beads, 16-mer random dsDNA library, 0.1% …; high values mean tight binding; double strand, one strand shown; scale: fold enrichment (6-mer frequency, TF over GST control).
Regarding GGTCTG, the binding signal is 0.683.

On to TGGTCA, for which the binding signal was 0.745.

AACAGA: the binding signal worked out at 0.933.

Turning to TACATA, the binding signal was found to be 1.27.

Regarding CGGCTG, the binding signal worked out at 0.791.

Take TAGAGA: the binding signal was found to be 1.15.

Sequence TGCGGT showed a binding signal of 0.786.

Consider GCGAAG, for which the binding signal was determined as 0.808.

In turn, CATTGG came in with a binding signal of 0.842.

Regarding ACAAAG, the binding signal stood at 0.961.

Regarding GCCACC, the binding signal worked out at 0.66.

Sequence CGTCCT came in with a binding signal of 0.999.

CGTCCA registered a binding signal of 0.788.

TGTAGA returned a binding signal of 0.855.

On to CTCGGG, for which the binding signal is 0.937.

CGCGTA had a binding signal of 0.867.

On to ACTGGA, for which the binding signal is 1.19.

As to CATTCA, the binding signal is 0.874.

For the sequence GAATAG, the binding signal amounted to 0.886.

As for GCGGCA, the binding signal is 0.646.

In turn, TAACGT yielded a binding signal of 1.16.

TTTGTT returned a binding signal of 1.46.

Sequence AGCGGC had a binding signal of 0.917.

GCAAAG yielded a binding signal of 0.894.

CAGATC showed a binding signal of 1.13.

For the sequence GTTCAG, the binding signal was found to be 0.777.

Sequence GGTTGT returned a binding signal of 0.629.

Take ACGCGT: the binding signal was 0.812.

GTTGGC registered a binding signal of 0.581.

CTGTGG returned a binding signal of 0.749.

For CGTCAT, the binding signal was 0.739.

TCCAGT came in with a binding signal of 0.757.

As to GGAATG, the binding signal is 0.737.

Sequence TAGCGA showed a binding signal of 1.24.

For CAGAAC, the binding signal is 0.895.

In the case of CAGAAG, the binding signal was 0.825.

GCCTGG displayed a binding signal of 0.917.

For GCATTT, the binding signal is 1.16.

With CACTAG, the binding signal was determined as 0.915.

A further assay concerns the target T2, ELF5 (UniProt Q9UKW6-2).
T2 sequence: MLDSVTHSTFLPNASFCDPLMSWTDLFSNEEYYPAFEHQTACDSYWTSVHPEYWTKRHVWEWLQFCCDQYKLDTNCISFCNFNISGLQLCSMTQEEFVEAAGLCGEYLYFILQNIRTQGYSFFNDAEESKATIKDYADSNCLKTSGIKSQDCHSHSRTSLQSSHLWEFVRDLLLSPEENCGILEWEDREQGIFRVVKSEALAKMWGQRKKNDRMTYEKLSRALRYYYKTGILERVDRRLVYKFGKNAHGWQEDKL
The assay is described as above. The note with it: 10 mM Tris-HCl pH 7.5, 50 mM NaCl, 1 mM DTT, 4% glycerol, room temperature, 30 min; GST-TFs on glutathione beads, 16-mer random dsDNA library, 0.1% …; high values mean tight binding; double strand, one strand shown; scale: fold enrichment (6-mer frequency, TF over GST control).
On to GGTCTG, for which the binding signal is 0.936.

In turn, TGGTCA displayed a binding signal of 0.963.

In the case of AACAGA, the binding signal amounted to 0.991.

The sequence TACATA gave a binding signal of 1.16.

CGGCTG gave a binding signal of 0.879.

In turn, TAGAGA returned a binding signal of 0.744.

Sequence TGCGGT displayed a binding signal of 0.954.

On to GCGAAG, for which the binding signal came to 0.78.

In turn, CATTGG registered a binding signal of 0.919.

Sequence ACAAAG displayed a binding signal of 0.936.

In the case of GCCACC, the binding signal came out at 0.913.

For the sequence CGTCCT, the binding signal was 1.56.

CGTCCA yielded a binding signal of 0.995.

As to TGTAGA, the binding signal turned out to be 0.891.

CTCGGG gave a binding signal of 0.95.

In turn, CGCGTA gave a binding signal of 0.956.

As for ACTGGA, the binding signal was found to be 0.977.

Consider CATTCA, for which the binding signal amounted to 1.02.

In the case of GAATAG, the binding signal was 0.926.

In turn, GCGGCA displayed a binding signal of 0.829.

TAACGT returned a binding signal of 0.959.

For TTTGTT, the binding signal turned out to be 1.27.

In the case of AGCGGC, the binding signal was 0.92.

GCAAAG: the binding signal was 0.899.

Consider CAGATC, for which the binding signal was determined as 0.879.

Sequence GTTCAG returned a binding signal of 0.901.

In turn, GGTTGT showed a binding signal of 0.888.

Turning to ACGCGT, the binding signal stood at 0.952.

GTTGGC showed a binding signal of 0.819.

Regarding CTGTGG, the binding signal stood at 0.822.

CGTCAT had a binding signal of 0.958.

Sequence TCCAGT returned a binding signal of 0.646.

GGAATG registered a binding signal of 0.842.

TAGCGA showed a binding signal of 0.968.

In turn, CAGAAC gave a binding signal of 0.905.

In turn, CAGAAG registered a binding signal of 0.73.

As for GCCTGG, the binding signal was 0.951.

GCATTT returned a binding signal of 1.4.

Regarding CACTAG, the binding signal amounted to 0.91.

Source of the values: PMC7862700.
